Test results taken from PubChem BioAssay AID1662 (Broad Institute, 2009).
The whole screen tested about 300,000 compounds, of which about 4,000 (1.3%) were called active. Inconclusive means that the source gave no clear call. Such entries were picked first, then a sample of the others.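 Rule for the calls: active = mean replicate score, as percent of positive control median, at least 50; inconclusive = mean below 50 but one replicate at or above 50; inactive = mean and every replicate below 50.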

Test: kanamycin survival loss of SKKanGAS strain – BacTiter-Glo luminescence, streptokinase expression inhibitor project, primary screen (AID 1662);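 note: strain carries kanamycin resistance gene driven by streptokinase promoter and grows in 40 µg/ml kanamycin; loss of luminescence reflects streptokinase promoter inhibition or plain growth inhibition; 0% = median of DMSO wells and 100% = positive control at its reference dose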
Details: S. pyogenes SKKanGAS, kanamycin growth, 6 h, at 7.5 µM, active compounds read high

Q: With O=c1cc2c(nn1Cc1ccc(Cl)cc1Cl)-c1ccccc1CC2 as the compound, how does the inhibition read?
A: inconclusive: 39%

Q: With CCCCOc1ccc(C(=O)NNC(=S)NC(=O)CC)cc1 as the compound, how does the inhibition read?
A: active: 96.7%

Q: Which inhibition does the source give for O=C(Nc1scc(-c2ccc(Br)cc2)c1C(=O)O)c1ccccc1F here?
A: active: 78.3%

Q: With O=C(N/N=C/c1ccc(O)c(O)c1O)/C(=C/c1ccc([N+](=O)[O-])cc1)NC(=O)c1ccccc1 as the compound, how does the inhibition read?
A: inconclusive: 44.5%

Q: Which inhibition does the source give for CC(C)c1ccc(NC(=O)NC(C)c2ccc3c(c2)OCO3)cc1 (stereo unspecified) here?
A: inconclusive: 44.4%

Q: With S=C1Cc2ccccc2N1 as the compound, how does the inhibition read?
A: inconclusive: 40.6%

Q: Which inhibition does the source give for FC(F)(F)c1cccc(-c2nc3nc(Cl)c(Cl)nc3[nH]2)c1 here?
A: inconclusive: 48.7%

Q: For COc1cnc(-c2ccccn2)nc1NC(C)C, which inhibition is on record?
A: inconclusive: 42.4%

Q: With COC(=O)c1cn(C(=O)c2ccc(C)cc2C)c2ccccc12 as the compound, how does the inhibition read?
A: inconclusive: 43.7%

Q: For CC(C)c1ccc(C2CC(=O)c3cnc(NC(=O)c4ccco4)nc3C2)cc1 (stereo unspecified), which inhibition is on record?
A: inactive: 3.13%

Q: For CCCn1c(=O)c(C(=O)NNS(=O)(=O)c2ccc(C)cc2)c(O)c2ccccc21, which inhibition is on record?
A: inconclusive: 49.1%

Q: Which inhibition does the source give for C#CCOCCOCCOCCNc1nc(N2CCN(C(=O)CCCCCCCCCCNC(=O)[C@H](CCCCN)n3cc(C[C@@H](C)CC)nn3)CC2)nc(N2CCN(C(=O)CCCCCCCCCCNC(=O)[C@H](CCCCN)n3cc(C[C@@H](C)CC)nn3)CC2)n1 here?
A: inconclusive: 49.3%

Q: With O=C(Nc1nnc(SCc2c(Cl)cccc2Cl)s1)C1CC(=O)N(c2ccc3c(c2)OCCO3)C1 (stereo unspecified) as the compound, how does the inhibition read?
A: inconclusive: 47.2%

Q: For O=C(NC(=S)N1CCN(c2nc(-c3ccccc3)cs2)CC1)c1cccnc1, which inhibition is on record?
A: active: 78.8%

Q: For O=c1c2sc(-c3ccccc3)cc2nc2n1CCC2, which inhibition is on record?
A: inconclusive: 32.7%

Q: With Cc1ccccc1Cn1c(O)c(N=NC(=S)Nc2ccccc2F)c2ccccc21 as the compound, how does the inhibition read?
A: inconclusive: 38.7%

Q: With Cc1ccc(-n2nnnc2-c2cnoc2-c2cccc(F)c2)cc1 as the compound, how does the inhibition read?
A: inconclusive: 20.4%

Q: For CC(C)(C)Nc1nc(-c2ccccn2)nc2ccccc12, which inhibition is on record?
A: active: 87.4%

Q: For CCc1ccc(CN(C)Cc2nc(Cc3cccc(C(F)(F)F)c3)no2)nc1, which inhibition is on record?
A: inconclusive: 32.1%

Q: With COc1ccc(Cl)cc1NC(=O)C[n+]1cccc(C)c1 as the compound, how does the inhibition read?
A: inactive: -2.23%

Q: Which inhibition does the source give for CCOC(=O)c1[nH]c(C)c(C(=O)Nc2ccccc2C)c1C here?
A: inactive: -5.12%

Q: With O=C(CSc1ccc(Cl)cc1)NC1=NN(c2ccccc2)C(=O)C1 as the compound, how does the inhibition read?
A: active: 77.5%

Q: For C/C(=N\Nc1nc2ccccc2s1)c1ccc2c(c1)OCO2, which inhibition is on record?
A: inconclusive: 38.9%

Q: With CC(C)/C(=N/Nc1ccccc1[N+](=O)[O-])c1ccccc1 as the compound, how does the inhibition read?
A: active: 56.1%

Q: Which inhibition does the source give for Cc1cccc(NC(=O)CN2C(=O)S/C(=C\c3ccc(-c4cccc(C(=O)O)c4C)o3)C2=O)c1 here?
A: inconclusive: 46.8%

Q: With O=C(N/N=C/c1cc(Cl)ccc1O)c1ccccc1Br as the compound, how does the inhibition read?
A: inconclusive: 46.5%

Q: With Cn1c2ccccc2c(=O)c2c(=O)n(-c3ccc(F)cc3)c(-c3cccs3)nc21 as the compound, how does the inhibition read?
A: inconclusive: 44.3%

Q: With CCN(CC)c1ccc(-c2nn3c(-c4cccnc4)nnc3s2)cc1 as the compound, how does the inhibition read?
A: active: 67.6%

Q: For CCOC(=O)c1cnc(-n2nc(C)cc2C)nc1NC, which inhibition is on record?
A: inconclusive: 43.5%

Q: Which inhibition does the source give for COc1cc(/C=N/NS(=O)(=O)c2ccc3ccccc3c2)ccc1OCc1ccc(C(=O)O)cc1 here?
A: active: 54.8%

Q: With O=C(O)CN1C(=O)/C(=C\c2cc(Br)ccc2OCc2ccc(F)cc2)SC1=S as the compound, how does the inhibition read?
A: inconclusive: 47.7%

Q: For CCOC(=O)N1CCC(N2Cc3cccc(C(=O)Nc4ccc(F)cc4)c3C2=O)CC1, which inhibition is on record?
A: inconclusive: 46.3%

Q: With Cc1ccc(-c2nc3cccnc3s2)cc1NS(=O)(=O)c1cccs1 as the compound, how does the inhibition read?
A: inactive: 26.5%

Q: For CC(C)CCN1CCN(CC#Cc2ccccc2)CC1CCO (stereo unspecified), which inhibition is on record?
A: inactive: 6.48%

Q: Which inhibition does the source give for Cc1ccc(C(=O)N2CCOCC2)cc1Cl here?
A: inconclusive: 39%

Q: Which inhibition does the source give for O=C(CSc1nnc(CNC(=O)c2c(F)cccc2F)o1)NCCc1ccccc1 here?
A: inconclusive: 43.7%

Q: Which inhibition does the source give for CCOC(=O)c1c(C)n(C)c2ccc(OCC(O)Cn3nc(C)c(Br)c3C)cc12 (stereo unspecified) here?
A: inconclusive: 46.1%

Q: For O=[N+]([O-])c1ccc(-c2nc(-c3cccs3)c(-c3cccs3)[nH]2)cc1, which inhibition is on record?
A: inconclusive: 44.9%

Q: For O=[N+]([O-])c1ccc(N=Nc2ccc(O)cc2O)cc1, which inhibition is on record?
A: inconclusive: 45.2%

Q: With Cc1nc2ccc(S(=O)(=O)Nc3cccc(-c4nc5cccnc5s4)c3)cc2s1 as the compound, how does the inhibition read?
A: inactive: 23.6%

Q: For O=C1C=C(O)CC(c2ccc(Cl)c(Cl)c2)C1 (stereo unspecified), which inhibition is on record?
A: inactive: 8.29%

Q: For O=c1c(-c2ccc(O)cc2)coc2c(C3O[C@H](CO)[C@@H](O)[C@H](O)[C@H]3O)c(O)ccc12 (stereo partly specified), which inhibition is on record?
A: inactive: -1.3%

Q: Which inhibition does the source give for CN(C(=O)Cc1c(C(=O)O)n(C)c2ccccc12)c1ccc(F)cc1 here?
A: inconclusive: 46.6%

Q: With CCN1CC(CN(C)Cc2nc(Cc3ccccc3)no2)CC1=O (stereo unspecified) as the compound, how does the inhibition read?
A: inactive: -3.67%

Q: For O=C(CSc1nnc(CNC(=O)c2c(F)cccc2F)o1)NCc1ccccc1, which inhibition is on record?
A: inconclusive: 44.4%

Q: For Cc1ccsc1C(=O)N(c1nc2ccccc2s1)c1c(C)cccc1C, which inhibition is on record?
A: inconclusive: 48.6%

Q: For C/C(=N/NC(=O)c1cc2ccccc2cc1O)C1C(=O)c2ccccc2C1=O, which inhibition is on record?
A: active: 83.3%

Q: Which inhibition does the source give for O=C(Nc1cccc(C(F)(F)F)c1)c1cc2c(=O)c3ccccc3oc2nc1C(F)(F)F here?
A: inconclusive: 41.1%

Q: With O=C(Nc1ccc(F)cc1)N1CCCCCC1 as the compound, how does the inhibition read?
A: inconclusive: 41.8%

Q: For Cc1cc(C)cc(C(=O)N2CCC(CCC(=O)NC3CC3)CC2)c1, which inhibition is on record?
A: inconclusive: 48.3%

Q: With COc1ccc2ccccc2c1/C=N/Nc1ccc(Cl)c(C(=O)O)c1 as the compound, how does the inhibition read?
A: inactive: 10.3%

Q: With CCOc1cccc(/C=N/NC(=S)Nc2ccccc2[N+](=O)[O-])c1O as the compound, how does the inhibition read?
A: active: 73.2%

Q: Which inhibition does the source give for Cc1ccc(Oc2ccc3c(c2)C(=O)N(c2cccc4cccnc24)C3=O)cc1 here?
A: inconclusive: 47.5%

Q: Which inhibition does the source give for Cc1cc(NC(=O)CN2CCN(c3ccccn3)CC2)ccc1Br here?
A: inactive: -1.79%

Q: With O=C(O)c1ccccc1-c1ccccc1C(=O)Nc1ccc(-c2nc3cc(Cl)ccc3o2)cc1 as the compound, how does the inhibition read?
A: inconclusive: 43.2%

Q: With CCn1cc(C(=O)O)c(=O)c2cc(F)c(N3CCN(C(=S)NC(=O)c4cc(OC)cc(OC)c4)CC3)cc21 as the compound, how does the inhibition read?
A: inconclusive: 35.6%
